Measured values as given in publication PMC8450092.
No constants are given. Whether binding was seen depends on the method and setting. In cells and extracts the contact can be indirect. A yes stands for co-enrichment or nearness to the bait. Other partners may have been found.

The chains behind the UniProt entries cited, without tags or fusion partners. Where a name states a change or a piece, a line headed by the entry shows the natural chain unless it says otherwise.
UniProt A4I7K4: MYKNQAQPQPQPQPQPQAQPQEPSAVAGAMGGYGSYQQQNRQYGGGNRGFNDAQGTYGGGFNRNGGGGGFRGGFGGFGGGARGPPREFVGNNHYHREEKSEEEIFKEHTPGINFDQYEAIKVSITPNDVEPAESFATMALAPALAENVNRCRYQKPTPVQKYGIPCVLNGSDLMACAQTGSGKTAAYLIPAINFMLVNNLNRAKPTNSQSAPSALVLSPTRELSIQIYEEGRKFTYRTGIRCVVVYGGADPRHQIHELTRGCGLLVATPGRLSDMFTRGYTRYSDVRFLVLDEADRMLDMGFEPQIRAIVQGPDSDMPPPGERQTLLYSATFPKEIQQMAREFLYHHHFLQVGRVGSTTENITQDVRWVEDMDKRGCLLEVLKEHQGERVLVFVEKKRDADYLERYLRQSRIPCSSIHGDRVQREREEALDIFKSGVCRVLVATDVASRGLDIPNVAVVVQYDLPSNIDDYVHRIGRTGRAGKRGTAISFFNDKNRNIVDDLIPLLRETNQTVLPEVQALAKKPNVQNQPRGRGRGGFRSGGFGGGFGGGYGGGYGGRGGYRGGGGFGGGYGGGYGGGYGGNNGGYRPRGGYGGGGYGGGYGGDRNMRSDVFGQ
UniProt A4HZ70: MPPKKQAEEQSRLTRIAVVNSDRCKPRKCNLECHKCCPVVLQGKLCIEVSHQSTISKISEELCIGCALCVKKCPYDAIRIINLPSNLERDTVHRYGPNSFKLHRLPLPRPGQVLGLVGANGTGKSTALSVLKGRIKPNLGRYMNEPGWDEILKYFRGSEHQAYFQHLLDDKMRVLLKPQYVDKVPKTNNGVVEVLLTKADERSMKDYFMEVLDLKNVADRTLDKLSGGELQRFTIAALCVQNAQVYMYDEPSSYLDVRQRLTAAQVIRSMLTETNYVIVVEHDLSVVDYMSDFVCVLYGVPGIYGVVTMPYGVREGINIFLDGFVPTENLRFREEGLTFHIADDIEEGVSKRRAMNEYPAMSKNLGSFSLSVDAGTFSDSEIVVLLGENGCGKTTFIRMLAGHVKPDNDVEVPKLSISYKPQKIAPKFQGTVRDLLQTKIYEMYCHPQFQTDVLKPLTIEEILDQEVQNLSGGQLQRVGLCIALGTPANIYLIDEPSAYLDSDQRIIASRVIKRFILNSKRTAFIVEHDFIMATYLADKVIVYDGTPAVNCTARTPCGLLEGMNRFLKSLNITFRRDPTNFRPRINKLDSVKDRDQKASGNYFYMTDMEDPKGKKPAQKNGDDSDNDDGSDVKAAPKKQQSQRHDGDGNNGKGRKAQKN
UniProt A4I2W3: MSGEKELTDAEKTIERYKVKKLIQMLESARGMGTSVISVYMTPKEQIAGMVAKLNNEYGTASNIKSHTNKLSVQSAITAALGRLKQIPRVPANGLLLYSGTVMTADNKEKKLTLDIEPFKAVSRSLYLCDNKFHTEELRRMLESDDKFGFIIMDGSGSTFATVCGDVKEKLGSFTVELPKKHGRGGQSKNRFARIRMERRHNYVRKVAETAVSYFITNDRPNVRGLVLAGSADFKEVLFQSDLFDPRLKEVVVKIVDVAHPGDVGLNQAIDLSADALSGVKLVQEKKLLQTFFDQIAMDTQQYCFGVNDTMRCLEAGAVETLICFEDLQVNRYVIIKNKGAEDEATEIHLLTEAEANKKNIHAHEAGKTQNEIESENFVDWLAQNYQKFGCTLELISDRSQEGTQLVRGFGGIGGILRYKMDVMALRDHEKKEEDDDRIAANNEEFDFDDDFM
UniProt A4HV24: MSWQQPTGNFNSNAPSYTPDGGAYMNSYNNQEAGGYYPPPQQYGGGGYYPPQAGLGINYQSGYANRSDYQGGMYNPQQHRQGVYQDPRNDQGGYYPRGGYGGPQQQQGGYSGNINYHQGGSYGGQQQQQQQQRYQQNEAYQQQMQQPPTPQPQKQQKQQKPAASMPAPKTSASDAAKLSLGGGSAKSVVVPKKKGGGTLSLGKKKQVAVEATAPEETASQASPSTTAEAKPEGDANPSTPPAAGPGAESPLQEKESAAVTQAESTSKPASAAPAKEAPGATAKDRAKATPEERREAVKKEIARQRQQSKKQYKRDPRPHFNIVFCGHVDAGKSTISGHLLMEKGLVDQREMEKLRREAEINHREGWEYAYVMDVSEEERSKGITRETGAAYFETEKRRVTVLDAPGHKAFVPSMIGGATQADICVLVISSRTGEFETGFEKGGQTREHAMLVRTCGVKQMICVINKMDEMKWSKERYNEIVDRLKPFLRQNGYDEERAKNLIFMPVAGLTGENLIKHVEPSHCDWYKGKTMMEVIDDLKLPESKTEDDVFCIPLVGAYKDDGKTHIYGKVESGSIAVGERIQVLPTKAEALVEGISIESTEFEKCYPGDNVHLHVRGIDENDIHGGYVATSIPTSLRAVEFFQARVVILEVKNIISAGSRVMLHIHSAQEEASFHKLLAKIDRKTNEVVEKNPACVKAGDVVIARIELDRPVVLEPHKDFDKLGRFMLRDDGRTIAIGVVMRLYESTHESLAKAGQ

These substances were tested against Leishmania infantum DDX3 tagged at the C-terminus with an HA epitope (LiDDX3-HA) (Leishmania infantum) (UniProt A4I7K4) (assay: affinity purification with mass spectrometry; L. infantum promastigotes expressing the HA-tagged protein of interest were lysed and mixed with Pierce anti-HA magnetic beads; bound proteins analysed by LC-MS/MS (directly or after SDS-PAGE, excision and trypsin digestion)).

Row | Substance | binding
1 | Leishmania infantum Rli1/ABCE1 (endogenous) (from UniProt A4HZ70) | binds
2 | Leishmania infantum eukaryotic release factor 1 (eRF1) (from UniProt A4I2W3) | binds
3 | Leishmania infantum eukaryotic release factor 3 (eRF3) (from UniProt A4HV24) | binds
